Measured values: PubChem BioAssay AID2517 (National Center for Advancing Translational Sciences (NCATS), 2010)
Out of some 350,000 compounds screened, about 1,200 (0.34%) were called active. Inconclusive results, whose numbers are uncertain, are shown with a selection of clear calls. The call rests on the fitted dose curve; in most records, active means well fitted inhibition curve with a large enough effect; inconclusive means small, poorly fitted or top-dose-only effect; inactive means no such curve, though single readings can be large or run the other way. Potencies beside an inconclusive call are fits to weak or partial responses and may not hold up.

The chains behind the UniProt entries cited, without tags or fusion partners.
UniProt P27695, whole entry, looked up: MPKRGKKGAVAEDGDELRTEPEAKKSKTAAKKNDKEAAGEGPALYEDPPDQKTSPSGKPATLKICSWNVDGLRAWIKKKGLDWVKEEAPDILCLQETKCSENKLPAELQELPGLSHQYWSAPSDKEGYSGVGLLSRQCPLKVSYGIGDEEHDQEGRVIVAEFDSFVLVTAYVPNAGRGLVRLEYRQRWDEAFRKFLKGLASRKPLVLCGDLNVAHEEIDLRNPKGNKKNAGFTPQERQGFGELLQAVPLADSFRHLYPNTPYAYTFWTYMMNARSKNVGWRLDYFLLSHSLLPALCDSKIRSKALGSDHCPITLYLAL

Each compound was assayed against DNA repair nuclease/redox regulator APEX1 (Homo sapiens) (UniProt P27695) (assay: qHTS Assay for Inhibitors of the Human Apurinic/apyrimidinic Endonuclease 1 (APE1)). Conditions: recombinant APE1, TAMRA/BHQ-2 abasic DNA cleavage fluorescence; activity change, negative = inhibition: at 65.8 µM (top of the series).
Outline: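 Activity was derived from the fluorescence gain between first and third kinetic reads (60 s intervals, ex 525/em 598 nm) after 50 nM THF-abasic TAMRA/BHQ-2 duplex was added to 0.75 nM APE1 preincubated 15 min with compound.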
Further: nearly all actives have a fitted effect of over 55% in size.
Potency means the concentration at half of the fitted maximal effect.
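Wherever activity change, negative = inhibition is given: plate controls were vehicle for no effect and reference inhibitor for full effect.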

Question: With COc1ccc(S(=O)(=O)NCCC(=O)NC2CCCCC2C)cc1[N+](=O)[O-] (stereo not drawn) as the compound, how does the Potency read?
Answer: inconclusive: 26.7 µM [inhibitor, partial curve]

Question: With CCCSc1sc(C(=O)OC)c(-c2cccs2)c1C#N as the compound, how does the Potency read?
Answer: inconclusive: 4.47 µM [inhibitor, full curve]

Question: Which “activity change, negative = inhibition” value does the source give for COc1ccc(Nc2nc(-c3sc(N)nc3C)cs2)cc1 here?
Answer: inactive: -0.876%

Question: With COC(=O)c1ccc(NC(=O)C2CCCN2S(=O)(=O)c2ccc(C)cc2)cc1 (stereo not drawn) as the compound, how does the Potency read?
Answer: inconclusive: 44.7 µM [inhibitor, single point]

Question: For Cc1nn(-c2ccccc2)c(C)c1C(=O)NCc1cccs1, which Potency is on record?
Answer: inconclusive: 28.2 µM [inhibitor, single point]

Question: With CC(C)(C)c1ccc(S(=O)(=O)Nc2ccc3c(c2)COC3=O)cc1 as the compound, how does the “activity change, negative = inhibition” value read?
Answer: inactive: 1.34%

Question: COc1ccc(Nc2nccc3c2nnn3C)cc1 was tested. Which Potency did it give?
Answer: inconclusive: 44.7 µM [inhibitor, single point]

Question: For Cc1c(C(=O)Nc2ccc(F)cc2)oc2ccc(S(=O)(=O)N3CCC4(CC3)OCCO4)cc12, which Potency is on record?
Answer: inconclusive: 0.0251 µM [inhibitor, full curve, poor fit]

Question: CCC/C(O)=C1\C(=O)CCCC1=NCCc1ccc(OCC)c(OCC)c1 was tested. Which Potency did it give?
Answer: inconclusive: 79.4 µM [inhibitor, partial curve, poor fit]

Question: CC(=O)OC[C@@H]1O[C@@H](O/N=C2/C[C@@H](O)[C@@H](O)[C@@H]3[C@@H]4C(=O)N(C(C)(C)C)C(=O)[C@H]4CC[C@@H]23)[C@H](OC(C)=O)[C@H](OC(C)=O)[C@@H]1OC(C)=O was tested. Which Potency did it give?
Answer: inconclusive: 3.16 µM [inhibitor, single point]

Question: Which Potency does the source give for CN(CC(=O)Nc1c(Cl)cccc1Cl)C(=O)c1cccc(-n2cccc2)c1 here?
Answer: active: 4.23 µM

Question: For CCOc1cc(C(=O)Nc2nnc(CC)s2)ccc1OCC(=O)N1CCOCC1, which Potency is on record?
Answer: inconclusive: 44.7 µM [inhibitor, single point]

Question: For Cc1cc(OCC(=O)OCC(=O)N2c3ccccc3NC(=O)C2(C)C)ccc1Cl, which Potency is on record?
Answer: inconclusive: 21.2 µM [inhibitor, partial curve]

Question: For Fc1ccc(N2CCN(C(c3cccs3)c3nnnn3CCc3ccccc3)CC2)cc1 (stereo not drawn), which Potency is on record?
Answer: inconclusive: 20 µM [inhibitor, partial curve, poor fit]

Question: CN(C)CCCn1c(N)c(C#N)c2nc3ccccc3nc21 was tested. Which Potency did it give?
Answer: inconclusive: 25.1 µM [inhibitor, single point]

Question: COc1ccc(-c2nnc(Nc3nc4c(OC)cccc4s3)o2)cc1 was tested. Which “activity change, negative = inhibition” value did it give?
Answer: inactive: -2.37%

Question: CCn1c2ccccc2c2cc(/C=N/NC(=O)c3ccc(O)cc3)ccc21 was tested. Which “activity change, negative = inhibition” value did it give?
Answer: inactive: 2.81%

Question: How did the Potency turn out when NC(=O)c1sc2nc(-c3ccco3)ccc2c1N was run?
Answer: inconclusive: 5.01 µM [inhibitor, partial curve]
